Measurements reported in publication PMC12850156.
No constants are given. Whether binding was seen depends on the method and setting. Binding seen in cells or lysates may run through a third protein. Some binding calls cover weakened binding; strength is not graded here.

Protein sequences, listed by entry. Tags and fused reporters are not part of them.
UniProt Q9UER7: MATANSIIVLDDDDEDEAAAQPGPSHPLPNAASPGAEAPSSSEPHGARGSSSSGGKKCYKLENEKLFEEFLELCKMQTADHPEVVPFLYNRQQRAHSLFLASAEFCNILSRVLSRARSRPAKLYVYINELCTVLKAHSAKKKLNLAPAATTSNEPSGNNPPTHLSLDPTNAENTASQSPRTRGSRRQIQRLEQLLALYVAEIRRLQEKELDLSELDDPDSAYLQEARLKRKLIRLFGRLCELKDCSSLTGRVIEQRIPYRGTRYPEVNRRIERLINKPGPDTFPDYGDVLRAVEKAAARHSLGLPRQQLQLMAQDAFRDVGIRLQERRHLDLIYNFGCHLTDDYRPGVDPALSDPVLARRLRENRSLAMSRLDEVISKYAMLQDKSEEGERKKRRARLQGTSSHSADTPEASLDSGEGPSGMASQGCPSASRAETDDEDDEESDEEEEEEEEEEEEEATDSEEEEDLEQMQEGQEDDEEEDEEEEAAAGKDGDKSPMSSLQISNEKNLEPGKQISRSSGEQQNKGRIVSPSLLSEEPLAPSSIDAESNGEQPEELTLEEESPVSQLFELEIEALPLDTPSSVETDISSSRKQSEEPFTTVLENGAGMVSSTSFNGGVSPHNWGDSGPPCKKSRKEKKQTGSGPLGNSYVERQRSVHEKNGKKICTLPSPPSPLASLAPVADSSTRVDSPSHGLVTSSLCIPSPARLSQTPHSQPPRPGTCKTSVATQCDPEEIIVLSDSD
UniProt Q99814: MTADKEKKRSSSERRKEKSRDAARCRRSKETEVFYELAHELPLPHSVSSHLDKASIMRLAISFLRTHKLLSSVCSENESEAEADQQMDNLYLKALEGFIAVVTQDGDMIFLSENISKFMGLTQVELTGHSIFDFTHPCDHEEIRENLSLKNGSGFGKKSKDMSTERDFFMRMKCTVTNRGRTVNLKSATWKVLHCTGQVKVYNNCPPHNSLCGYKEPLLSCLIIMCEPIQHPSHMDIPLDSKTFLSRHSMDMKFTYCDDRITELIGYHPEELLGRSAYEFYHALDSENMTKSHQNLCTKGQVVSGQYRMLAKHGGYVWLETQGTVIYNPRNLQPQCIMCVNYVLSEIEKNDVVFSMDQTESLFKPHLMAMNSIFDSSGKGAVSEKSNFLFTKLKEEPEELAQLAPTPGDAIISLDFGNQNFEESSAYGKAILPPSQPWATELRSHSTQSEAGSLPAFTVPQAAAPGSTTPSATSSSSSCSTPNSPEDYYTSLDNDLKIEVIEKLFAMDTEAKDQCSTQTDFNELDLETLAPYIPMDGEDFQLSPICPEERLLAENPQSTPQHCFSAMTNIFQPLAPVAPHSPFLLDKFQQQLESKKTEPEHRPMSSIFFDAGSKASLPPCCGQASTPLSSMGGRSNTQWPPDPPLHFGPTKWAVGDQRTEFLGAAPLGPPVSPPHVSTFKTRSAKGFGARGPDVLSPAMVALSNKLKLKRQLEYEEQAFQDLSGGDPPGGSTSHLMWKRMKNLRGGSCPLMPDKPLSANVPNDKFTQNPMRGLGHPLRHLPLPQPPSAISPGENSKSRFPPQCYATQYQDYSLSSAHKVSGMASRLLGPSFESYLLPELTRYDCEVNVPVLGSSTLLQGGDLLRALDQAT

T1: NUSAP1 (endogenous, TNBC cells) (human (endogenous in MDA-MB-231, MDA-MB-468, HCC1937)) (UniProt Q9BXS6)
T1 sequence: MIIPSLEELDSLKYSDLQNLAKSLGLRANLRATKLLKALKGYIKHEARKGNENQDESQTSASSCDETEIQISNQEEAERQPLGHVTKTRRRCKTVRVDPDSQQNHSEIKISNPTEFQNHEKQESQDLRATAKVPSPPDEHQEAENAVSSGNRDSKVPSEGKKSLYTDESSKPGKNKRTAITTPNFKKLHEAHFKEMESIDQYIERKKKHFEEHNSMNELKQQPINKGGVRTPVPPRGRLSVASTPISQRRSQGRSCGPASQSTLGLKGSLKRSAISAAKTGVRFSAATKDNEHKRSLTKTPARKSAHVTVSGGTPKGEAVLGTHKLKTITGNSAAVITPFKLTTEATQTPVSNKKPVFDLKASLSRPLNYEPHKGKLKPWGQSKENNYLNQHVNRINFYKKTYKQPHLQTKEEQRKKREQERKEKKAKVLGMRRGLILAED

B1: SUV39H1 (in TNBC cells) (enzyme, UniProt O43463 1-412)
chain: MAENLKGCSVCCKSSWNQLQDLCRLAKLSCPALGISKRNLYDFEVEYLCDYKKIREQEYYLVKWRGYPDSESTWEPRQNLKCVRILKQFHKDLERELLRRHHRSKTPRHLDPSLANYLVQKAKQRRALRRWEQELNAKRSHLGRITVENEVDLDGPPRAFVYINEYRVGEGITLNQVAVGCECQDCLWAPTGGCCPGASLHKFAYNDQGQVRLRAGLPIYECNSRCRCGYDCPNRVVQKGIRYDLCIFRTDDGRGWGVRTLEKIRKNSFVMEYVGEIITSEEAERRGQIYDRQGATYLFDLDYVEDVYTVDAAYYGNISHFVNHSCDPNLQVYNVFIDNLDERLPRIAFFATRTIRAGEELTFDYNMQVDPVDMESTRMDSNFGLAGLPGSPKKRVRIECKCGTESCRKYLF

Key:
[1] = molecular target: T1, NUSAP1 (endogenous, TNBC cells) (human (endogenous in MDA-MB-231, MDA-MB-468, HCC1937)); experiment: co-IP; cell lysates in NETN buffer (10 mM Tris-HCl, 150 mM NaCl, 1 mM EDTA, 0.5% NP-40, pH 7.4), indicated antibodies and protein A/G magnetic beads overnight at 4 °C, immunoblot; TNBC cells treated with MG132 (10 µM, 6 h), 1% O2 for 6 h or normoxic; also with shNUSAP1, shDAXX, NUSAP1, DAXX or TS-MAD overexpression
[2] = molecular target: DAXX (in TNBC cells) (human (endogenous in MDA-MB-231, MDA-MB-468)) (UniProt Q9UER7); experiment: as above

Molecule	binding [1]	binding [2]
DAXX (in TNBC cells) (from UniProt Q9UER7 1-740)	binds	
HIF2α (in TNBC cells) (from UniProt Q99814 1-870)	binds	
B1		binds
